In the supplement of paper PMC6411743 one finds NP40-soluble protein abundance data, which are given here for 74 targets.

Protein sequences, listed by entry. Tags and fused reporters are not part of them. Lines headed by an entry give the natural chain unless they say otherwise; changes in a name come on top.
UniProt Q13015: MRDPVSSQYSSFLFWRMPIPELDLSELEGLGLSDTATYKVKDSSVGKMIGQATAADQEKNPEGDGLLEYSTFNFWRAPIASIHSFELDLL
UniProt Q13356: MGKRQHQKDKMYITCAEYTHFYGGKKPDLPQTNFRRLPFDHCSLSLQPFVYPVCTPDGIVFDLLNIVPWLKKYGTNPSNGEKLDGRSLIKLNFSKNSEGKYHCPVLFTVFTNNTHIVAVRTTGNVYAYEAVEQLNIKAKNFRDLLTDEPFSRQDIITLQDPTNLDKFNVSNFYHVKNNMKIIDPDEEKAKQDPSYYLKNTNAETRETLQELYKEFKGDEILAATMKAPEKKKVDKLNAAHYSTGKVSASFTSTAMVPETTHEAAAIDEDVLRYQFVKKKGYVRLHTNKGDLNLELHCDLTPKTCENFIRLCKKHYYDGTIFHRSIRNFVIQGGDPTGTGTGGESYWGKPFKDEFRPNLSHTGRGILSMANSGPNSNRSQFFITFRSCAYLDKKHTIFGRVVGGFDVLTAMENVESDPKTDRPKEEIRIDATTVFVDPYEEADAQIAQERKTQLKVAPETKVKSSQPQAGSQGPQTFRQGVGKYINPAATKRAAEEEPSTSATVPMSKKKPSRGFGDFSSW
UniProt Q04727: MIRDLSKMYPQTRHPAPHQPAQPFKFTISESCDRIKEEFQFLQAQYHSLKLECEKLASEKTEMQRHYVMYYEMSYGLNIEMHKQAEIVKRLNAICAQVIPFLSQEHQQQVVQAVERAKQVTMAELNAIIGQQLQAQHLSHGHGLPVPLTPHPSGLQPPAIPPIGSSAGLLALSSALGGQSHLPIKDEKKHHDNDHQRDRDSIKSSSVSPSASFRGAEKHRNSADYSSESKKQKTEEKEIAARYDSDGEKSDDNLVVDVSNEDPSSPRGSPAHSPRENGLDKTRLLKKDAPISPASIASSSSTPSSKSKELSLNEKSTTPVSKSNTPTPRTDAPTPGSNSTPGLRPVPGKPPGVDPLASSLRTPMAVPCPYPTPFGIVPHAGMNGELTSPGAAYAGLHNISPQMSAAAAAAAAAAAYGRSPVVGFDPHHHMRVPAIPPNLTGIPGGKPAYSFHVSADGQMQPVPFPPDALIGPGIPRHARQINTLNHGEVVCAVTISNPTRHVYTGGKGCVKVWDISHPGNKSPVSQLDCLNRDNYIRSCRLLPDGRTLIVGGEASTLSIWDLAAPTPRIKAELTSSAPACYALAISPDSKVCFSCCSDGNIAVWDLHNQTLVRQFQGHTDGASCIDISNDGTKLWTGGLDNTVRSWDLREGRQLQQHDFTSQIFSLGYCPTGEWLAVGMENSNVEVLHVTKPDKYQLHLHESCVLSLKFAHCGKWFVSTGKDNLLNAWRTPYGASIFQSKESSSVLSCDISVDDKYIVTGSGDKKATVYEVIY
UniProt Q13206, whole entry: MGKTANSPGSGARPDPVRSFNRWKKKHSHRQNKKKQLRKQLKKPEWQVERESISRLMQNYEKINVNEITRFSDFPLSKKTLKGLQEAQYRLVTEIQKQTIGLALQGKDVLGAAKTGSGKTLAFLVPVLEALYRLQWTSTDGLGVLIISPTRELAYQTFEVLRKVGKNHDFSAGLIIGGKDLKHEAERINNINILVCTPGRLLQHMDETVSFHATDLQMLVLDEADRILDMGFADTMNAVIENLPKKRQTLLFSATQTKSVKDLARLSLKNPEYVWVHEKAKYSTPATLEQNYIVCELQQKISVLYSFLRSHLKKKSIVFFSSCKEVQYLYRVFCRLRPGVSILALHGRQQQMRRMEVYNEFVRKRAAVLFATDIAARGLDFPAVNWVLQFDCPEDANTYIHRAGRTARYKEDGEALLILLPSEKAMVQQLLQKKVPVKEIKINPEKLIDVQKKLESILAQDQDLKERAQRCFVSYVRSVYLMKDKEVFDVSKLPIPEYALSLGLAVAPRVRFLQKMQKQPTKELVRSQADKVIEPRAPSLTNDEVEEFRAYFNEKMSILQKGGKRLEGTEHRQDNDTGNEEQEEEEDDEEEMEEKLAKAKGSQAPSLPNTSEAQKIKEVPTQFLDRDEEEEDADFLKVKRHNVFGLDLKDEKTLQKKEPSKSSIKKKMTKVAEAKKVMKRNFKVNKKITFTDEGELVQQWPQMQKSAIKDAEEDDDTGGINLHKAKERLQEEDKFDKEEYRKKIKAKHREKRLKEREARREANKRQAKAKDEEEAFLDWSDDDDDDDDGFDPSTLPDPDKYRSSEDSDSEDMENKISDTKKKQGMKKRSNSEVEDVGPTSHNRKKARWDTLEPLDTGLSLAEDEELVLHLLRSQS
UniProt Q07065: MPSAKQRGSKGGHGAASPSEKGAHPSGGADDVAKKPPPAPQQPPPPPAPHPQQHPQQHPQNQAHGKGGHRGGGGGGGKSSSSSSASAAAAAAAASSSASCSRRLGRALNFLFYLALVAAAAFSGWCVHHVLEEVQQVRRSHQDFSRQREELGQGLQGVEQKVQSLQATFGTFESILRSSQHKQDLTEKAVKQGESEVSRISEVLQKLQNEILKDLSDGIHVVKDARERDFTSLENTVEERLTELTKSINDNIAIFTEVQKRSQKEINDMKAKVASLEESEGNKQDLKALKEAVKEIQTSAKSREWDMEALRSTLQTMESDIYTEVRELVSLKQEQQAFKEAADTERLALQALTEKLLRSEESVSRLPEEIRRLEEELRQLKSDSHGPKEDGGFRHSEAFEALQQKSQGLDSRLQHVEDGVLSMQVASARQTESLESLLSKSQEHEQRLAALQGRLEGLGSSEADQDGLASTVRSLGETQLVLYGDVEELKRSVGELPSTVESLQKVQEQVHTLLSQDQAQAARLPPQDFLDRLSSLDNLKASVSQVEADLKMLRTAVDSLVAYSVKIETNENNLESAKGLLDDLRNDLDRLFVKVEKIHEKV
UniProt Q13257, whole entry: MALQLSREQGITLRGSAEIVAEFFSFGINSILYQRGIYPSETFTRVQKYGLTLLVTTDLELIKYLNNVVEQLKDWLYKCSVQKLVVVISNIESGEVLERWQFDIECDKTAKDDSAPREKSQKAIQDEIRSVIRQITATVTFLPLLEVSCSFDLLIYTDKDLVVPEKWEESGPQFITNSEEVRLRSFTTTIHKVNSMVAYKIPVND
UniProt Q06203, whole entry: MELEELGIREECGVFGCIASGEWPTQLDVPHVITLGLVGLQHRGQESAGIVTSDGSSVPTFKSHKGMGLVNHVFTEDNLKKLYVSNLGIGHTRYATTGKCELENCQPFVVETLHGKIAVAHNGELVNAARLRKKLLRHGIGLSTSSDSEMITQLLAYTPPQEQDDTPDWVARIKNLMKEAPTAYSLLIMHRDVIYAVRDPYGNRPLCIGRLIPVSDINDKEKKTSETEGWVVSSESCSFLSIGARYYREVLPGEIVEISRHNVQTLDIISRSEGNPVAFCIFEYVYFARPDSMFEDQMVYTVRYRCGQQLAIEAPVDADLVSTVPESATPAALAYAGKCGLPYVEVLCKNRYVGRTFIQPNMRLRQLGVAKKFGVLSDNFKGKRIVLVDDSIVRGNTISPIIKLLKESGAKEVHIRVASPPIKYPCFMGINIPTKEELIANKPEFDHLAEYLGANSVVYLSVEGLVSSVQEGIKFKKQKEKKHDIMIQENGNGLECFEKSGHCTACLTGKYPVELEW
UniProt Q13190: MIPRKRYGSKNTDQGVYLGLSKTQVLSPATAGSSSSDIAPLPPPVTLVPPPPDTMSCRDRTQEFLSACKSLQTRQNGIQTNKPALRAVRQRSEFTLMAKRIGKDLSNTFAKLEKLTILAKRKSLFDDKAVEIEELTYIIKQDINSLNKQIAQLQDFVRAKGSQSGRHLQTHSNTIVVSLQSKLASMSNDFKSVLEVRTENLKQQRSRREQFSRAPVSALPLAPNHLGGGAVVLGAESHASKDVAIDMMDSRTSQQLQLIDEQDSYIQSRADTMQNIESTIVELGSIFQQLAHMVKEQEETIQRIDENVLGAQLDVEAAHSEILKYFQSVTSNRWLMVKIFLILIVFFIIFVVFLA
UniProt Q13867: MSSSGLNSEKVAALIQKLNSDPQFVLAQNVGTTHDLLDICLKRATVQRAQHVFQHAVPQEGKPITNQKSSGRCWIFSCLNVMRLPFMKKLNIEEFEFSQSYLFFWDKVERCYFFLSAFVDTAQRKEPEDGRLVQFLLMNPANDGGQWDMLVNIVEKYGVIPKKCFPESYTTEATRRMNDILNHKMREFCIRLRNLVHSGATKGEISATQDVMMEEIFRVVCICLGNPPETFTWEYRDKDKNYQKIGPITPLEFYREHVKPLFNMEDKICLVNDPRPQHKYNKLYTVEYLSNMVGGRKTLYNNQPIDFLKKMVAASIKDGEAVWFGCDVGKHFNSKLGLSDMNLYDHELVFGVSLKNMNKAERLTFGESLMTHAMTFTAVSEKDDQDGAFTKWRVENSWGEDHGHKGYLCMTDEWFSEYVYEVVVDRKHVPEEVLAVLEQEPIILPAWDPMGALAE
UniProt Q08431: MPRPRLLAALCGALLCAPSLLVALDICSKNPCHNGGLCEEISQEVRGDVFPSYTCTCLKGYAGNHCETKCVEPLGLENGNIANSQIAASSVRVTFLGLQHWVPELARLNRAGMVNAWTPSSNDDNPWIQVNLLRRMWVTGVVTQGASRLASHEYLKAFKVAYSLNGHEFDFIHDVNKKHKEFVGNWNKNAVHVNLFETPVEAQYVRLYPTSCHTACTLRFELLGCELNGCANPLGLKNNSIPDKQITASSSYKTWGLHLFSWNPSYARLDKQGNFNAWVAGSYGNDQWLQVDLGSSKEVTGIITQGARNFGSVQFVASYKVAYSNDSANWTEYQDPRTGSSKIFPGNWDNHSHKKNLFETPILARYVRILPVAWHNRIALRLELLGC
UniProt Q02127: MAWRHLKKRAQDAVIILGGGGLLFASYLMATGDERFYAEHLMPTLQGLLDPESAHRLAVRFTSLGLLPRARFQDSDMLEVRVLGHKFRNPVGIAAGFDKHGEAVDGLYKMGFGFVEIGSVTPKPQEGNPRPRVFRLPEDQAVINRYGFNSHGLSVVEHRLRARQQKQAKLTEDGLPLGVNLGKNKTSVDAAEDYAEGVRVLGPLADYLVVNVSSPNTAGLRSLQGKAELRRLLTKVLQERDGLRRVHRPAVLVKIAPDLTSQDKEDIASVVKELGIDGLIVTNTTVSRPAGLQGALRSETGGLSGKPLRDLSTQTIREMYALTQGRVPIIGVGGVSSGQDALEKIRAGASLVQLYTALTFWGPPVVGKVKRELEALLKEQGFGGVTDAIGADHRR
UniProt Q01658: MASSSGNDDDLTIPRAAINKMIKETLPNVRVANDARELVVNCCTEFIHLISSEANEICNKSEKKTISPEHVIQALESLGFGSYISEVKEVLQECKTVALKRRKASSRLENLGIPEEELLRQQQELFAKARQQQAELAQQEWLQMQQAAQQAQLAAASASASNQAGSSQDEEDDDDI
UniProt Q09328: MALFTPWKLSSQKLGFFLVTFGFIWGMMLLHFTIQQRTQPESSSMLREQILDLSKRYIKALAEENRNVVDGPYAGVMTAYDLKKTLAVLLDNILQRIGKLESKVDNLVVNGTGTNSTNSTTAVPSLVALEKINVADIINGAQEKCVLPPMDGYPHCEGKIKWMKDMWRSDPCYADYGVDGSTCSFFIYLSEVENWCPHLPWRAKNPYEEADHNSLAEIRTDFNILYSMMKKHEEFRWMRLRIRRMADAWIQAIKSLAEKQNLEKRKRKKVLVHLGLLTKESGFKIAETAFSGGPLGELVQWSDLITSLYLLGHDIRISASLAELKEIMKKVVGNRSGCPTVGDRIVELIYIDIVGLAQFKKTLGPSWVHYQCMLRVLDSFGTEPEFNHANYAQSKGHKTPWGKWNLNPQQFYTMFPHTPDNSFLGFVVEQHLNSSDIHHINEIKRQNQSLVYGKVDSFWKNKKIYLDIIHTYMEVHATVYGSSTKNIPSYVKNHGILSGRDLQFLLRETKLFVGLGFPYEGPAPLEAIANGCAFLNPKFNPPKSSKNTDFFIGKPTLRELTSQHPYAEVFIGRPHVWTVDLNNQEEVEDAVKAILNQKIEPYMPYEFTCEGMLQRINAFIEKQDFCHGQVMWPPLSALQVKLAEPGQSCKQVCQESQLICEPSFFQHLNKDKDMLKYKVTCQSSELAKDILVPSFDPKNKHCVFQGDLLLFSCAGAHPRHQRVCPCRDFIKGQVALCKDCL
UniProt Q09028, whole entry: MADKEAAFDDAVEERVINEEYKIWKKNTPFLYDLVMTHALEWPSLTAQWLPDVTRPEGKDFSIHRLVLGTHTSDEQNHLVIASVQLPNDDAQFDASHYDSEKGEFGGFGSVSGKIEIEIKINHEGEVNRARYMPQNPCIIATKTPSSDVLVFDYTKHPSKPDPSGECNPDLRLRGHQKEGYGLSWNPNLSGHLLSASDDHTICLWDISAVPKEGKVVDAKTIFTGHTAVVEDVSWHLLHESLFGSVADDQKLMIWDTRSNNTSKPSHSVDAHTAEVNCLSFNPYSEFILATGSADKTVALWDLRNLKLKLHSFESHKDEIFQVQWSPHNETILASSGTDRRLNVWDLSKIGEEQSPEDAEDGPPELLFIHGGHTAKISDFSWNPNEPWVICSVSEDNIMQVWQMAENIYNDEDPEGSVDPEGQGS

± gives the standard deviation of the averaged measurements. The list shows a part of the results, in another mix than the full data. Small differences around the control level are noise.

Compound in this assay: Nc1ncnc2c1ncn2[C@@H]1O[C@H](COP(=O)(O)OP(=O)(O)OP(=O)(O)O)[C@@H](O)[C@H]1O [adenosine triphosphate]
In words: NP40-soluble protein abundance relative to vehicle (solubility fold change) (ratio); higher = more soluble protein in presence of ATP. In a few lines:
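Across three independent experiments, values are fold changes against the detergent-processed vehicle for each replicate, based on vsn-normalised intensities. The samples were Jurkat crude lysate treated with eight concentrations (0.1 to 10 mM) for 10 min at room temperature and then 3 min at 37 °C. Lysate was solubilised with 0.8% NP40 and benzonase, ultracentrifuged, and the supernatant analysed by TMT-labelled LC-MS/MS.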

UniProt Q13164: the NP40-soluble protein abundance was determined as 1.07 ± 0.033 (concentration: 0.1mM) and 1.02 ± 0.097 (concentration: 0.5mM).
For UniProt Q13363 and related entries the same measures were 1.01 ± 0.045 and 1.06 ± 0.081.
For UniProt Q12789 and related entries the same measures were 1.04 ± 0.034 and 1.049 ± 0.0063.
For UniProt Q03188 the same measures were 1.03 ± 0.047 and 0.997 ± 0.025.
For MLLT11 (UniProt Q13015), the NP40-soluble protein abundance is, setting by setting: (concentration: 0.1mM) 0.855 ± 0.023; (concentration: 0.5mM) 1.05 ± 0.057.
For SNW1 (UniProt Q13573), in that order: 0.97 ± 0.025 and 0.979 ± 0.058.
For UniProt Q02241 and related entries, in that order: 1.07 ± 0.022 and 1.14 ± 0.038.
For PPIL2 (UniProt Q13356), in that order: 1.2 ± 0.047 and 1.27 ± 0.037.
As to UniProt Q02410 and related entries, the NP40-soluble protein abundance is, setting by setting: (concentration: 0.1mM) 0.98 ± 0.11; (concentration: 0.5mM) 0.904 ± 0.042.
Turning to UniProt Q04727 and related entries, the NP40-soluble protein abundance runs as follows: (concentration: 0.1mM) 0.993 ± 0.051; (concentration: 0.5mM) 0.951 ± 0.072.
For GALNT2 (UniProt Q10471), in that order: 1.05 ± 0.077 and 1.05 ± 0.059.
For UniProt Q06136 and related entries, in that order: 0.96 ± 0.11 and 0.981 ± 0.043.
Regarding DDX10 (UniProt Q13206), the NP40-soluble protein abundance (concentration: 0.1mM) is 0.938 ± 0.078 and the NP40-soluble protein abundance (concentration: 0.5mM) stood at 0.941 ± 0.069.
Regarding BOP1 (UniProt Q14137), the NP40-soluble protein abundance was 1.01 ± 0.017 (concentration: 0.1mM) and 1.06 ± 0.039 (concentration: 0.5mM).
For “Q13888 and related entries (UniProt Q6P1K8+Q13888)”, in that order: 1.07 ± 0.028 and 1.11 ± 0.076.
For CKAP4 (UniProt Q07065) the same measures were 0.973 ± 0.035 and 0.965 ± 0.016.
For GNL2 (UniProt Q13823), in that order: 0.974 ± 0.026 and 1.07 ± 0.052.
On to TMED1 (UniProt Q13445), for which the NP40-soluble protein abundance (concentration: 0.1mM) came to 0.991 ± 0.04 and the NP40-soluble protein abundance (concentration: 0.5mM) came to 1.06 ± 0.078.
For ITPK1 (UniProt Q13572) the same measures were 0.982 ± 0.028 and 0.929 ± 0.032.
For ITK (UniProt Q08881), in that order: 1.06 ± 0.085 and 1.05 ± 0.048.
Regarding UniProt Q13952 and related entries, the NP40-soluble protein abundance by setting is: (concentration: 0.1mM) 0.969 ± 0.045; (concentration: 0.5mM) 0.922 ± 0.056.
For IFIT5 (UniProt Q13325) the same measures were 1.02 ± 0.087 and 1.03 ± 0.12.
For MAD2L1 (UniProt Q13257) the same measures were 1.05 ± 0.12 and 1.03 ± 0.052.
For “UniProt Q12979-2|A0A0G2JQ41|Q12979 and related entries”, in that order: 1.05 ± 0.071 and 1.03 ± 0.064.
In the case of ECH1 (UniProt Q13011), the NP40-soluble protein abundance (concentration: 0.1mM) is 1 ± 0.055 and the NP40-soluble protein abundance (concentration: 0.5mM) stood at 1.02 ± 0.044.
For “UniProt Q13557-12|D6R938 and related entries”, in that order: 1.08 ± 0.027 and 1.05 ± 0.093.
For PPAT (UniProt Q06203), in that order: 1 ± 0.064 and 0.997 ± 0.012.
For HMGCS1 (UniProt Q01581) the same measures were 0.997 ± 0.056 and 1.04 ± 0.052.
Take G3BP1 (UniProt Q13283): the NP40-soluble protein abundance was determined as 1.05 ± 0.03 (concentration: 0.1mM) and 1.06 ± 0.045 (concentration: 0.5mM).
For PLAUR (UniProt Q03405) the same measures were 1.13 ± 0.13 and 1.1 ± 0.17.
For UniProt Q05086 and related entries the same measures were 1.01 ± 0.046 and 1 ± 0.047.
For UniProt Q13190 and related entries the same measures were 1.02 ± 0.0016 and 1.02 ± 0.036.
As for FHL3 (UniProt Q13643), the NP40-soluble protein abundance runs as follows: (concentration: 0.1mM) 1.03 ± 0.059; (concentration: 0.5mM) 1.07 ± 0.15.
For UniProt Q12802 and related entries, in that order: 1.02 ± 0.059 and 1.04 ± 0.059.
For COTL1 (UniProt Q14019) the same measures were 0.918 ± 0.016 and 0.89 ± 0.074.
For UNC119 (UniProt Q13432), in that order: 1.03 ± 0.07 and 1.01 ± 0.065.
Turning to UniProt Q13625 and related entries, the NP40-soluble protein abundance came to 0.984 ± 0.025 (concentration: 0.1mM) and 1.02 ± 0.048 (concentration: 0.5mM).
For UniProt Q13094 and related entries, in that order: 0.967 ± 0.031 and 0.97 ± 0.012.
In the case of UniProt Q07002 and related entries, the NP40-soluble protein abundance (concentration: 0.1mM) is 1.05 ± 0.081 and the NP40-soluble protein abundance (concentration: 0.5mM) was found to be 1.19 ± 0.074.
For SPAG1 (UniProt Q07617) the same measures were 0.988 ± 0.085 and 0.928 ± 0.034.
For UniProt Q06210 and related entries, in that order: 1.03 ± 0.084 and 1.01 ± 0.028.
For UniProt Q13574 and related entries, in that order: 1.04 ± 0.037 and 1.07 ± 0.042.
Turning to UniProt Q13627-2, the NP40-soluble protein abundance (concentration: 0.1mM) came out at 1.04 ± 0.032 and the NP40-soluble protein abundance (concentration: 0.5mM) is 1.16 ± 0.062.
For MRPL49 (UniProt Q13405), in that order: 0.918 ± 0.13 and 0.961 ± 0.16.
BLMH (UniProt Q13867): the NP40-soluble protein abundance reads like this: (concentration: 0.1mM) 1.04 ± 0.098; (concentration: 0.5mM) 1.05 ± 0.072.
For UniProt Q13724 and related entries the same measures were 1.06 ± 0.079 and 1.05 ± 0.079.
For UniProt Q13530 and related entries, in that order: 1.03 ± 0.063 and 0.957 ± 0.023.
For HSPA14 (UniProt Q0VDF9) the same measures were 1.02 ± 0.051 and 1.02 ± 0.044.
Take MFGE8 (UniProt Q08431): the NP40-soluble protein abundance (concentration: 0.1mM) was found to be 0.996 ± 0.04 and the NP40-soluble protein abundance (concentration: 0.5mM) came to 0.951 ± 0.047.
For UniProt Q13535 and related entries, in that order: 0.957 ± 0.056 and 0.993 ± 0.015.
In the case of UniProt Q04864-2, the NP40-soluble protein abundance is 1.04 ± 0.025 (concentration: 0.1mM) and 1.03 ± 0.02 (concentration: 0.5mM).
For TAF10 (UniProt Q12962), in that order: 1.09 ± 0.049 and 1.068 ± 0.0054.
For UniProt Q01105-2, in that order: 0.892 ± 0.079 and 0.836 ± 0.033.
For the target PWP1 (UniProt Q13610), the NP40-soluble protein abundance (concentration: 0.1mM) amounted to 0.99 ± 0.021 and the NP40-soluble protein abundance (concentration: 0.5mM) was found to be 0.9732 ± 0.0044.
For UniProt Q13422 and related entries, in that order: 0.98 ± 0.032 and 1.02 ± 0.052.
For DHODH (UniProt Q02127) the same measures were 1.05 ± 0.039 and 1.04 ± 0.067.
In the case of UniProt Q06547 and related entries, the NP40-soluble protein abundance was found to be 1 ± 0.017 (concentration: 0.1mM) and 0.949 ± 0.024 (concentration: 0.5mM).
For UniProt Q12769 and related entries the same measures were 1.04 ± 0.065 and 1.06 ± 0.054.
For DR1 (UniProt Q01658), in that order: 0.859 ± 0.22 and 0.947 ± 0.34.
For MGAT5 (UniProt Q09328), in that order: 1 ± 0.067 and 0.954 ± 0.089.
Consider NOTCH2 (UniProt Q04721), for which the NP40-soluble protein abundance runs as follows: (concentration: 0.1mM) 1.14 ± 0.12; (concentration: 0.5mM) 0.917 ± 0.039.
For the target GALNT1 (UniProt Q10472), the NP40-soluble protein abundance is, setting by setting: (concentration: 0.1mM) 1 ± 0.028; (concentration: 0.5mM) 1.09 ± 0.023.
Regarding UniProt Q13740 and related entries, the NP40-soluble protein abundance by setting is: (concentration: 0.1mM) 0.952 ± 0.026; (concentration: 0.5mM) 0.928 ± 0.051.
For CPSF1 (UniProt Q10570) the same measures were 1.03 ± 0.079 and 1.16 ± 0.071.
As to HDAC1 (UniProt Q13547), the NP40-soluble protein abundance is 0.958 ± 0.054 (concentration: 0.1mM) and 0.989 ± 0.067 (concentration: 0.5mM).
For UniProt Q09028-2|Q09028-3|Q09028, in that order: 1.01 ± 0.042 and 1.08 ± 0.051.
For IK (UniProt Q13123) the same measures were 0.977 ± 0.035 and 1.05 ± 0.07.
For the target RBL2 (UniProt Q08999), the NP40-soluble protein abundance runs as follows: (concentration: 0.1mM) 1.03 ± 0.032; (concentration: 0.5mM) 1.017 ± 0.0068.
For KEAP1 (UniProt Q14145), in that order: 0.95 ± 0.15 and 0.809 ± 0.077.
For CENPE (UniProt Q02224) the same measures were 0.942 ± 0.055 and 0.952 ± 0.071.
For PPID (UniProt Q08752) the same measures were 1 ± 0.043 and 0.998 ± 0.052.
Take MTM1 (UniProt Q13496): the NP40-soluble protein abundance (concentration: 0.1mM) was determined as 1.08 ± 0.1 and the NP40-soluble protein abundance (concentration: 0.5mM) was 1.06 ± 0.074.
For PPP1R8 (UniProt Q12972) the same measures were 0.975 ± 0.036 and 0.969 ± 0.063.
SSRP1 (UniProt Q08945): the NP40-soluble protein abundance runs as follows: (concentration: 0.1mM) 1 ± 0.013; (concentration: 0.5mM) 0.981 ± 0.013.
